HELM strings list residues between dots; [ac] is acetyl, [am] amide, other brackets name non-standard units.
Experiment: general procedure: Fmoc solid-phase peptide synthesis; Rink Amide MBHA ([…]); DIC/HOAt
Conditions: conjugation step; for final HPLC purity / purity (crude or final not stated): 220/254 nm, HPLC
[1] = bicyclic, sequence written open

Substance	final HPLC purity [1]	conjugation yield [1]	conjugation yield	final HPLC purity	purity (crude or final not stated)	purity (crude or final not stated) [1]
MMAE-PABC-Cit-Val-Glutaryl-BCY7556	99.6%	28.39%				
PEPTIDE1{[MMAE-PABC-Cit-Val-Glutaryl].[bAla].[Sar].[Sar].[Sar].[Sar].[Sar].[Sar].[Sar].[Sar].[Sar].[Sar].C.P.F.[dD].C.M.[HArg].N.W.S.T.P.I.W.C.[am]}|CHEM1{[TATA]}$PEPTIDE1,CHEM1,13:R3-1:R1|PEPTIDE1,CHEM1,17:R3-1:R2|PEPTIDE1,CHEM1,27:R3-1:R3$$$V2.0			31.22%	99.0%	98.40%	
MMAE-PABC-Cit-Val-Glutaryl-BCY8232	99.4%	33.70%				
MMAE-PABC-Cit-Val-Glutaryl-BCY8273	95.7%	34.74%				
MMAE-PABC-Cit-Val-Glutaryl-BCY8234	99.30%					99.60%
MMAE-PABC-Cit-Val-Glutaryl-BCY8269	96.8%	48.18%				
MMAE-PABC-Cit-Val-Glutaryl-BCY8235	96.4%	25.94%				99.40%
MMAE-PABC-Cit-Val-Glutaryl-BCY8231	96.9%	33.17%				97.00%

— patent US12459974B2 (priority 2018, dated 2025)
